The other results are listed elsewhere or left out. The source made no clear call on entries shown without one.
target: Zinc finger protein mex-5 (Caenorhabditis elegans) (UniProt Q9XUB2); test: retest of MEX-5 TCR-2 binding inhibitors, confirmation, biochemical, C. elegans, fluorescence polarization, dose retest (AID 449745); settings: Mex-5 / TCR-2 RNA binding, at 38 µM (top of the series)

Amino acid sequences for entries named in this document (tags omitted). A change or cut given only in a name is not applied to a line headed by its entry.
UniProt Q9XUB2: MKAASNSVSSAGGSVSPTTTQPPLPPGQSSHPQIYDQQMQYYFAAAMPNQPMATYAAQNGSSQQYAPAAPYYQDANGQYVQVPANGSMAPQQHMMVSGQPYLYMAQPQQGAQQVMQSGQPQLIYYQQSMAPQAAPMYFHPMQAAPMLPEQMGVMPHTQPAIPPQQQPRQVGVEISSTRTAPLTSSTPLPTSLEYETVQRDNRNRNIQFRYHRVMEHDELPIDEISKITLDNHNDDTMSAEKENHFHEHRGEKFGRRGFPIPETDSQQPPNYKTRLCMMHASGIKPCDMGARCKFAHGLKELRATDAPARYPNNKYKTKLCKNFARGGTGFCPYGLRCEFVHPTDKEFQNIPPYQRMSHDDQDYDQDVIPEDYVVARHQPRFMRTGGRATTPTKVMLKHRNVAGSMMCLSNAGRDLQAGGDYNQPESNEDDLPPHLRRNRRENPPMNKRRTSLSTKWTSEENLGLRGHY

activity change, negative = inhibition | Structure (SMILES)
-54.1% | Cc1ccccc1S(=O)(=O)NNC(=O)C(=O)NNc1ccccn1
-31.5% | Oc1ccc(/C=N/Nc2ccc(Cl)nn2)c(O)c1O
-57.6% | Nc1ccc(S(=O)(=O)NNC(=O)C(=O)NNc2ccccn2)cc1
-42.5% | CCOc1ccc(N=Nc2c(=O)[nH]n3c(=O)c4c([nH]c23)CCCC4)cc1
-4.28% | CN(C)c1ccc(/C=C(\C#N)C(=O)c2ccccc2)cc1
-11.4% | Oc1ccc(/C=N/Nc2ncnc3nc[nH]c23)cc1

From PubChem BioAssay AID449745 (Broad Institute, 2010)
